Reference: publication PMC4187570
No constants are given. Whether binding was seen depends on the method and setting. In cells and extracts the contact can be indirect. These calls come from enrichment with a bait or labelling near it, and not all partners need be listed. A no says only that the protein was not detected with the bait.

By UniProt entry, the sequences of proteins in these tests, tags left out. Residues count along the entry.
UniProt Q9Y6K9: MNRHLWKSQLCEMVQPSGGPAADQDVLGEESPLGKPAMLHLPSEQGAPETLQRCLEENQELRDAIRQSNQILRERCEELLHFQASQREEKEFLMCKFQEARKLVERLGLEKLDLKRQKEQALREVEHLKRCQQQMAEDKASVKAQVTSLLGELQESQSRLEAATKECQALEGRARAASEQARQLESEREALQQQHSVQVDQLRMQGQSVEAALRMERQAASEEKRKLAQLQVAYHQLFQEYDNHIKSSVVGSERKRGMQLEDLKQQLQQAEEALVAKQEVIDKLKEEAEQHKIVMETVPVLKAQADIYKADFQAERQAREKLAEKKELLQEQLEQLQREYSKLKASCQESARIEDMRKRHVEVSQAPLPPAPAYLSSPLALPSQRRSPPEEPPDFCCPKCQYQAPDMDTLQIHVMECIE
UniProt P01024, residues 23-1663: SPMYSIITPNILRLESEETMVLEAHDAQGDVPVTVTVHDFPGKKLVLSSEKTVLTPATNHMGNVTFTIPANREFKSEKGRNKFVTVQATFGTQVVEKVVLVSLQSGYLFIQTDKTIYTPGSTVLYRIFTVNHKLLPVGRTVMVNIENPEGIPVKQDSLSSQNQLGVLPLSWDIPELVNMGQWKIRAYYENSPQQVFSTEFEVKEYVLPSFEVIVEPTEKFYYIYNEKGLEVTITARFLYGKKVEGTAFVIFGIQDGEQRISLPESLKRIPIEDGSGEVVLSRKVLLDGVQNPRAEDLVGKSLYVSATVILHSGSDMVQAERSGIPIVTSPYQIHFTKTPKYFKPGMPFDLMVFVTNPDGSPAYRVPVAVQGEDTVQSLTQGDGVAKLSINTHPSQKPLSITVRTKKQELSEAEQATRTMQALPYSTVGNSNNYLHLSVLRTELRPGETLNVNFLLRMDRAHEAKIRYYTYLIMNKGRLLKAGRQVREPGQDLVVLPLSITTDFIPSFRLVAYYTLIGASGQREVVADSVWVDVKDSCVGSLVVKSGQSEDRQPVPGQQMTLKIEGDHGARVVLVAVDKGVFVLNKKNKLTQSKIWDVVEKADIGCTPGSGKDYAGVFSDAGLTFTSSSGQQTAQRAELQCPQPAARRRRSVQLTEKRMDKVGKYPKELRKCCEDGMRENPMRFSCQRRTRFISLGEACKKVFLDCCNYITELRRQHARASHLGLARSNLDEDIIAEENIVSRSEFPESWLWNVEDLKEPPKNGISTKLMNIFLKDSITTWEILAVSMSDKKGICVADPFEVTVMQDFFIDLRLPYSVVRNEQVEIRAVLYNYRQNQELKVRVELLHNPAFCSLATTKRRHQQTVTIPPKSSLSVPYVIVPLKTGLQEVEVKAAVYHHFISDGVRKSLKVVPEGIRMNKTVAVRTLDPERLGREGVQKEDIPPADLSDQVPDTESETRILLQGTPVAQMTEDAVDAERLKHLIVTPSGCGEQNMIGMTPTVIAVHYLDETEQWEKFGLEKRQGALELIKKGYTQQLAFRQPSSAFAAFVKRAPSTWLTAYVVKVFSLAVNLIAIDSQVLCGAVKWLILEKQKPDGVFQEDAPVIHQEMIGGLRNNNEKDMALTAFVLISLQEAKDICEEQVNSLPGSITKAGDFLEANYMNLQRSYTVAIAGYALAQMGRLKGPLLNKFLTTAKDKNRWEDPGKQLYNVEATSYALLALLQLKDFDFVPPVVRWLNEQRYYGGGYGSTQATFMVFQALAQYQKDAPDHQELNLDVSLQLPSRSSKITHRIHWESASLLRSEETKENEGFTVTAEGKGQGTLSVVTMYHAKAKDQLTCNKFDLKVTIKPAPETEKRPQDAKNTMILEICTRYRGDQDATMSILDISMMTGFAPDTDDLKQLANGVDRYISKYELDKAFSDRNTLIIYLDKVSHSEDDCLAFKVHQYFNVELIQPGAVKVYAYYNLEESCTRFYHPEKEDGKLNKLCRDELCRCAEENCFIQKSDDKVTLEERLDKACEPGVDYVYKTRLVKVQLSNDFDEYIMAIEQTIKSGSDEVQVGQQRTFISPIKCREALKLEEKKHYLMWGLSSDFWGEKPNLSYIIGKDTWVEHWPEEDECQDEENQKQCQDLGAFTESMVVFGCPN
UniProt Q8IUD2: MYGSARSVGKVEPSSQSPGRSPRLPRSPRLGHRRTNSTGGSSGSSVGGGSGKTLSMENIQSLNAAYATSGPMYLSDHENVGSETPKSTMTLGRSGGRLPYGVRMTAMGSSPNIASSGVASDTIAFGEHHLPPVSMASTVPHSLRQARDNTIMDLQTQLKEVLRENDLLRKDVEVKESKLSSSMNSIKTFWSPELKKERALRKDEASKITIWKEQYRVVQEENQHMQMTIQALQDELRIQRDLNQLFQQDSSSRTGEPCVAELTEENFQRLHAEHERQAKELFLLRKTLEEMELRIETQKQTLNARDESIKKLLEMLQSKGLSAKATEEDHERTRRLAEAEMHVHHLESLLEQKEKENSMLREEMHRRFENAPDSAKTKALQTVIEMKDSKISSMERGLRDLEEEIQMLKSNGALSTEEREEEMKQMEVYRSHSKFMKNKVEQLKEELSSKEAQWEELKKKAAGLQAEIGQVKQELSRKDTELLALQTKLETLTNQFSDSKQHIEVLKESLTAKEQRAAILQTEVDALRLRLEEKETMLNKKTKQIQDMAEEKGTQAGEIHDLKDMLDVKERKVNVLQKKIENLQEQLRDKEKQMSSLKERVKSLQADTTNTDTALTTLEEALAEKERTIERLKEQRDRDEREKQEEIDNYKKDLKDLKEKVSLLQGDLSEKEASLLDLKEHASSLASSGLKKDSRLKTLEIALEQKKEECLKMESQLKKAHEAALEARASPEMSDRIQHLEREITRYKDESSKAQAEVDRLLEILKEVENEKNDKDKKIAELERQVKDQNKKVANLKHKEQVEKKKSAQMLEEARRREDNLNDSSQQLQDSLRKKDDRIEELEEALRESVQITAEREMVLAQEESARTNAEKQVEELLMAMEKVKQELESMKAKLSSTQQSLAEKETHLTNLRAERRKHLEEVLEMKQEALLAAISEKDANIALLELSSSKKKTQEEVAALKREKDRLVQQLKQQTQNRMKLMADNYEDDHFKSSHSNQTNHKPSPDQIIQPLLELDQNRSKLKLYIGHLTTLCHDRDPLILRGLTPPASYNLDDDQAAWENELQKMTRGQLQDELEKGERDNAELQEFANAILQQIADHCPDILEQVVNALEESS
UniProt P31943: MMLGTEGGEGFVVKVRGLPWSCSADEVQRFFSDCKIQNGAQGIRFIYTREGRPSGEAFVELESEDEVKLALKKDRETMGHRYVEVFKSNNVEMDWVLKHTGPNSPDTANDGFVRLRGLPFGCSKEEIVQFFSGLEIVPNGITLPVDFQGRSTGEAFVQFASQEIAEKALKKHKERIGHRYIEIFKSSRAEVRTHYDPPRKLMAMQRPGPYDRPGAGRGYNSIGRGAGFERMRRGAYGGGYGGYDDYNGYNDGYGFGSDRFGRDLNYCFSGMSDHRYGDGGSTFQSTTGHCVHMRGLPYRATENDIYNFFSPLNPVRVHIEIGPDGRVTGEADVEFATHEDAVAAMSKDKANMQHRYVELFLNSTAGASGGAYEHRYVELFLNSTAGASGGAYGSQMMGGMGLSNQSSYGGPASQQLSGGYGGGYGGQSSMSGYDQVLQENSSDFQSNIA
UniProt Q00610: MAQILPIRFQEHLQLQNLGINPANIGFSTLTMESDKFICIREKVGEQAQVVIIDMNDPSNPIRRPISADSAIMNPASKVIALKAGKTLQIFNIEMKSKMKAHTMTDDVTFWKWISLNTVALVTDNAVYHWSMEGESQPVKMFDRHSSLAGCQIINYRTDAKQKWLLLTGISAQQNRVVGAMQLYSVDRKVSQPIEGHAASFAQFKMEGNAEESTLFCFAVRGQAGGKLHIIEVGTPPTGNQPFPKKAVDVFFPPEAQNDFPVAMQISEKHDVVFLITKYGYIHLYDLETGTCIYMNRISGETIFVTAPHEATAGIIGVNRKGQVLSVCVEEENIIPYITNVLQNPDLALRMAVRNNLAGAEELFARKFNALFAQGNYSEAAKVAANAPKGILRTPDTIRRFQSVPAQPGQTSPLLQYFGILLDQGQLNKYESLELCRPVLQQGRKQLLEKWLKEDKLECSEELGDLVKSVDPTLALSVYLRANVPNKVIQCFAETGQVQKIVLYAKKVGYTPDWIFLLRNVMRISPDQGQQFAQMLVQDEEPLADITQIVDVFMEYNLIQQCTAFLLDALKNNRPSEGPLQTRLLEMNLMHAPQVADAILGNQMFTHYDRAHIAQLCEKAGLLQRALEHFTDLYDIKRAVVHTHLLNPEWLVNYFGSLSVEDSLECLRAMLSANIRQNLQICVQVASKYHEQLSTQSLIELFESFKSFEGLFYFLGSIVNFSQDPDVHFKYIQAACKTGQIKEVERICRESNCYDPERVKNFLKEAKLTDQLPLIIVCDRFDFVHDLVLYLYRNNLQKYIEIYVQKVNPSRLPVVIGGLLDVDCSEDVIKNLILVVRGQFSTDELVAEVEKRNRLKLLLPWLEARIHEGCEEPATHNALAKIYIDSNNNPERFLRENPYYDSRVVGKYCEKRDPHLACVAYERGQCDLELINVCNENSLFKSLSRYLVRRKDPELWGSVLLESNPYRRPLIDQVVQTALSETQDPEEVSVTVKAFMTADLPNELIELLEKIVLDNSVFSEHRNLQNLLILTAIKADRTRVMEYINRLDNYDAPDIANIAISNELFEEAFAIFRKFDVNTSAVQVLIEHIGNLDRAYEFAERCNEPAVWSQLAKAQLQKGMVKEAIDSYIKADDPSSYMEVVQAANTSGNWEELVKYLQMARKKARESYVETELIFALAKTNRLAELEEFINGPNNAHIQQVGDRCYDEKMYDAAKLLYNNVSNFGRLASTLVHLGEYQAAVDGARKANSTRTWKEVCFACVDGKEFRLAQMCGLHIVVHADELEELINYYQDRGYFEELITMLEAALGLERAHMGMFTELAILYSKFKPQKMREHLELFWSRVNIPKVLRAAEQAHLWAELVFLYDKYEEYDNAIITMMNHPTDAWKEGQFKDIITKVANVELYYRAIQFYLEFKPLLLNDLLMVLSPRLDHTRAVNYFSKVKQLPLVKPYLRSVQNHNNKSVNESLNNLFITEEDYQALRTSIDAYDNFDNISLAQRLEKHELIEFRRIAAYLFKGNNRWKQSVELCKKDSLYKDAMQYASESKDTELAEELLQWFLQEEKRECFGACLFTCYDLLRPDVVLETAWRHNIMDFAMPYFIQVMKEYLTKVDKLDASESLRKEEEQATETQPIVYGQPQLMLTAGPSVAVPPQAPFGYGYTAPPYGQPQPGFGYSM
UniProt P07996, residues 19-1170: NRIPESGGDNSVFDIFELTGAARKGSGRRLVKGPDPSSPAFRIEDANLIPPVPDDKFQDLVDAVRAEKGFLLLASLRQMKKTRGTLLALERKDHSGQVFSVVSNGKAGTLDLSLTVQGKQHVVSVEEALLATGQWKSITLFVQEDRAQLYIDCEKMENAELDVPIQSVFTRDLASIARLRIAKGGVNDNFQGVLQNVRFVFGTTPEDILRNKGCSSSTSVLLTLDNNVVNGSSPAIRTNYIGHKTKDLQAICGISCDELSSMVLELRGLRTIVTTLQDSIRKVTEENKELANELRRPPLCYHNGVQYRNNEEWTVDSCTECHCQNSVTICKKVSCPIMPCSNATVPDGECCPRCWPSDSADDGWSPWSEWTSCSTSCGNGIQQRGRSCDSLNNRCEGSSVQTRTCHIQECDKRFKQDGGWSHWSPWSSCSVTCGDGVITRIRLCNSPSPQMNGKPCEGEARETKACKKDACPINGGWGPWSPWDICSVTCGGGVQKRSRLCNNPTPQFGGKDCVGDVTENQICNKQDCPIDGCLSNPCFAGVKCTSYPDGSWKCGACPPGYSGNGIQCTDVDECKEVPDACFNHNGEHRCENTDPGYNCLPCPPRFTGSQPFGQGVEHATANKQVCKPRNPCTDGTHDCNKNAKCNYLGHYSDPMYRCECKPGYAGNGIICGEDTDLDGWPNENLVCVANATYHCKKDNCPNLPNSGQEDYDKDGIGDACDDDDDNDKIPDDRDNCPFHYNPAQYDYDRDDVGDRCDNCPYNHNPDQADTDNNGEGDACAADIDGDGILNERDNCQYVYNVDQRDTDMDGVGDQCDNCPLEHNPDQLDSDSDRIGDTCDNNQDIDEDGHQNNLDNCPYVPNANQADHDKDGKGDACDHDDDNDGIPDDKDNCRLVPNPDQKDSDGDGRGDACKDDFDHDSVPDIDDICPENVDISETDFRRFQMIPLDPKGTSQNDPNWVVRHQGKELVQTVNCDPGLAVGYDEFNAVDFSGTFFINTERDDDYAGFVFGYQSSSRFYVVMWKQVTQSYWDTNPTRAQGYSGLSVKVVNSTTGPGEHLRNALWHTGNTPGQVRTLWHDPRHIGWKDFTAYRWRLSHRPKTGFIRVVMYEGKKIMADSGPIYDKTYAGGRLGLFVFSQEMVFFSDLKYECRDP

Biological target: NEMO (NF-kB essential modulator) (human (endogenous in A549)) (UniProt Q9Y6K9)
Experiment: affinity purification with mass spectrometry; A549 lysate (M-PER), 400 uL with 2 ug agarose-conjugated mouse anti-IKKα or rabbit anti-NEMO antibody, 1 h at room temperature, five PBS washes; SDS-PAGE, in-gel trypsin, LC-MS/MS; scored (FC-A, FC-B, SAINT) against agarose-conjugated isotype IgG and CRAPome controls; resting cells

binding	Substance
binds	C3 (from UniProt P01024 23-1663)
no binding	ELKS (from UniProt Q8IUD2 1-1116)
binds	EWSR1 (from UniProt Q01844 1-656)
binds	FUS (from UniProt P35637 1-526)
binds	HNRH1_HUMAN (from UniProt P31943 1-449)
binds	ILF2 (from UniProt Q12905 1-390)
binds	PABPC1, a polyA-binding protein (from UniProt P11940 1-636)
binds	TRIM21 (from UniProt P19474 1-475)
binds	VCP (from UniProt P55072 1-806)
binds	clathrin heavy chain 1 (from UniProt Q00610 1-1675)

Biological target: T1, IKKα (human (endogenous in A549)) (UniProt O15111)
T1 sequence: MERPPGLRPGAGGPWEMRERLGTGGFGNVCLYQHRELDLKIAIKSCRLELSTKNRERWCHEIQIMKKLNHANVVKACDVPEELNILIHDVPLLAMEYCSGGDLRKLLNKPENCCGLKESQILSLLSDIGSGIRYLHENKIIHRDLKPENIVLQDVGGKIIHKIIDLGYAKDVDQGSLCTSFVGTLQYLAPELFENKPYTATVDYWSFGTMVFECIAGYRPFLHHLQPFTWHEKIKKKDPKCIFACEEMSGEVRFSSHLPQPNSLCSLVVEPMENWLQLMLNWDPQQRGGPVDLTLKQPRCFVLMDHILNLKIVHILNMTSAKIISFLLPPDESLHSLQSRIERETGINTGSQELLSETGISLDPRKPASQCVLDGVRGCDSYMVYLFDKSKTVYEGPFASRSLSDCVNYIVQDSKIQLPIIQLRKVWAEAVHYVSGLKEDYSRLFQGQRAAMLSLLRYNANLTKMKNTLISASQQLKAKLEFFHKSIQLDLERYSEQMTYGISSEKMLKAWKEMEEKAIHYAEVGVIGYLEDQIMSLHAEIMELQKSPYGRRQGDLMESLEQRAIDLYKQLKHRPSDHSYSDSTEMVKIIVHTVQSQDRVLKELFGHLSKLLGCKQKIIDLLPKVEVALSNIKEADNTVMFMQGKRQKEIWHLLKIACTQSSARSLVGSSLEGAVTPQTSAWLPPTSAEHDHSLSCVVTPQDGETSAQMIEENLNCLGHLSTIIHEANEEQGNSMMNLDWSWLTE
Experiment: as above

binding	Substance
no binding	ELKS (from UniProt Q8IUD2 1-1116)
binds	FN1 (from UniProt P02751 32-2477)
binds	IKKβ (from UniProt O14920 1-756)
binds	ILF2 (from UniProt Q12905 1-390)
binds	MYO1B (from UniProt O43795 1-1136)
binds	SBF2 (from UniProt Q86WG5 1-1849)
binds	SSSCA1 (human (endogenous in A549))
binds	THBS1 (from UniProt P07996 19-1170)
binds	TIMM50 (from UniProt Q3ZCQ8 45-353)
binds	clathrin heavy chain 1 (from UniProt Q00610 1-1675)
no binding	clathrin light chain (human (endogenous in A549))
